This note sets out measurements from PubChem BioAssay AID330 (DTP/NCI, 2004).

The list does not hold the whole screen: it gathers tests that were run many times, whatever their T/C, doses with no T/C, and many T/C values between a quarter and a half above the control. Further doses and runs are listed elsewhere. T/C: endpoint of the treated group in % of that of the vehicle group. Some doses have a count of surviving animals in place of a T/C: the source holds a T/C of zero for them, seemingly a mark for toxic or unscored doses. Some doses without a T/C left all or most animals alive at the check, yet need not have been tolerated: survival well below the control is almost never listed, so the zero probably covers shortened survival too. Survivors were counted at the toxicity check, usually on the fifth day, unless a day is given; later deaths do not show. Schedule codes are those of the source, taken here to give the interval after Q, in days (D) or hours (H), and the number of doses after X. Some entries hold several experiments; their values stand side by side, smallest first. For survival time, the PubChem record calls one and a half times the control and up active, and a quarter to a half above the control has no call in these data; cut-offs in other NCI protocols can differ. Some T/C values carry the count of animals alive at the toxicity check (mostly the fifth day); without a count, all were alive then.

For this experiment, the system named is P388 leukemia ip, CD2F1 mice, survival T/C. The experiment in a line: NCI In Vivo Anticancer Drug Screen. Data for tumor model P388 Leukemia (intraperitoneal) in CD2F1 (CDF1) mice. Particulars: T/C endpoint: median survival time, higher T/C = longer survival.
Where [1] appears, read: dose: 25.0 mg/kg/injection, schedule: Q01DX009 (ip), vehicle: saline with Tween-80.
[2] abbreviates: dose: 400.0 mg/kg/injection, schedule: Q04DX003 (ip), vehicle: saline with Tween-80.
The mark [3] stands for this setting: dose: 200.0 mg/kg/injection, schedule: Q01DX005 (ip), vehicle: Klucel (hydroxypropylcellulose) (HPC).
The mark [4] stands for this setting: dose: 100.0 mg/kg/injection, schedule: Q01DX005 (ip), vehicle: saline with Tween-80.
Setting [5] is: dose: 200.0 mg/kg/injection, schedule: Q01DX009 (ip), vehicle: saline with Tween-80.
The mark [6] stands for this setting: dose: 50.0 mg/kg/injection, schedule: Q01DX009 (ip), vehicle: saline with Tween-80.

`COc1cccc2c1C(=O)c1c(O)c3c(c(O)c1C2=O)C[C@@](O)(C(=O)CO)C[C@@H]3OC1CC(N2CCOCC2C#N)C(O)C(C)O1` (stereo not given in full): the survivor count (dose: 1.25 mg/kg/injection, schedule: Q04DX003 (ip), vehicle: distilled water + Tween-80) is on record as 0 of 6 on day 9; the survivor count (dose: 2.5 mg/kg/injection, schedule: Q04DX003 (ip), vehicle: distilled water + Tween-80) is given as 0 of 6 on day 9; the survivor count (dose: 5.0 mg/kg/injection, schedule: Q04DX003 (ip), vehicle: distilled water + Tween-80) was 0 of 6 on day 9; the survivor count (dose: 10.0 mg/kg/injection, schedule: Q04DX003 (ip), vehicle: distilled water + Tween-80) was 0 of 6 on day 9; the survivor count (dose: 20.0 mg/kg/injection, schedule: Q04DX003 (ip), vehicle: distilled water + Tween-80) is 0 of 6 on day 9; the survivor count (dose: 37.5 micrograms/kg/injection, schedule: Q04DX003 (ip), vehicle: saline with Tween-80) is on record as 3 of 6. Further, the survivor count (dose: 50.0 micrograms/kg/injection, schedule: Q04DX003 (iv), vehicle: saline + alcohol) is 10 of 10; the survivor count (dose: 75.0 micrograms/kg/injection, schedule: Q04DX003 (ip), vehicle: saline with Tween-80) is 1 of 6 and 2 of 6; the survivor count (dose: 75.0 micrograms/kg/injection, schedule: Q04DX003 (iv), vehicle: saline + alcohol) was 10 of 10; the survivor count (dose: 150.0 micrograms/kg/injection, schedule: Q04DX003 (ip), vehicle: saline with Tween-80) is 0 of 6; the survivor count (dose: 600.0 micrograms/kg/injection, schedule: Q04DX003 (ip), vehicle: water) is listed as 5 of 6 on day 9. Besides, the T/C is 139 % of control (dose: 4.69 micrograms/kg/injection, schedule: Q04DX003 (ip), vehicle: saline with Tween-80); 137 % of control (dose: 33.0 micrograms/kg/injection, schedule: Q04DX003 (iv), vehicle: saline + alcohol); 131 % of control (dose: 150.0 micrograms/kg/injection, schedule: Q04DX003 (ip), vehicle: water).
For `O=C(C=C(C(F)(F)F)C(F)(F)F)c1ccccc1Cl`, the T/C under setting [1] is 145 % of control [5 of 6 alive]. In addition, under “dose: 50.0 mg/kg/injection, schedule: Q04DX003 (ip), vehicle: saline with Tween-80”, the survivor count is 6 of 6.
As to `NC(N)=NC(N)=Nc1ccc(-c2ccc(N=C(N)N=C(N)N)cc2)cc1`, the T/C (dose: 12.5 mg/kg/injection, schedule: Q01DX009 (ip), vehicle: saline with Tween-80) is 133 % of control. The survivor count under setting [1] was 4 of 6.
Regarding `O=C(CCCCl)CC(O)(C(F)(F)F)C(F)(F)F`, the survivor count under setting [2] is reported as 1 of 6.
For the molecule `[CH3][Sn]([CH3])([n]1cc(CC(=O)O)c2ccccc21)[n]1cc(CC(=O)O)c2ccccc21`, the survivor count under setting [3] is 0 of 6.
With `Cc1c(COC(=O)NC(C)C)c(COC(=O)NC(C)C)c2n1CS(=O)(=O)C2`, the T/C (dose: 12.5 mg/kg/injection, schedule: Q01DX005 (ip), vehicle: saline with Tween-80) was 133 [5 of 6 alive] and 142 % of control; the T/C (dose: 25.0 mg/kg/injection, schedule: Q01DX005 (ip), vehicle: saline with Tween-80) was 147 % of control. The survivor count under setting [4] was 6 of 6.
With `S=C1SCN(Cc2ccco2)CN1Cc1ccco1`, under setting [5], the survivor count was 4 of 6.
`Cc1ccc2nc(NC(=S)SSC(=S)Nc3nc4ccc(C)cc4s3)sc2c1`: the survivor count by setting is: (dose: 50.0 mg/kg/injection, schedule: Q01DX009 (ip), vehicle: Klucel (hydroxypropylcellulose) (HPC)) 6 of 6; (dose: 100.0 mg/kg/injection, schedule: Q01DX009 (ip), vehicle: Klucel (hydroxypropylcellulose) (HPC)) 0 of 6; (dose: 200.0 mg/kg/injection, schedule: Q01DX009 (ip), vehicle: Klucel (hydroxypropylcellulose) (HPC)) 0 of 6.
For the molecule `CCCCCCCCCCCOC(=O)c1ccc(O)cc1`, the survivor count under setting [5] was 5 of 6.
In the case of `Nc1ncnc2c1ncn2[C@@H](C=O)O[C@@H](C=O)CO`, the T/C runs as follows: (dose: 1.56 mg/kg/injection, schedule: Q01DX009 (ip), vehicle: other) 128 and 138 % of control; (dose: 3.13 mg/kg/injection, schedule: Q01DX009 (ip), vehicle: other) 141 % of control. Moreover, the survivor count was 2 of 6 and 3 of 6 (dose: 25.0 mg/kg/injection, schedule: Q01DX009 (ip), vehicle: other); 1 of 6 (dose: 50.0 mg/kg/injection, schedule: Q01DX009 (ip), vehicle: other).
Turning to `Cc1c2oc3c(C)ccc(C(=O)NC4C(=O)NC(C(C)C)C(=O)N5CCCCC5C(=O)N(C)CC(=O)N(C)C(C(C)C)C(=O)OC4C)c3nc-2c(C(=O)NC2C(=O)NC(C(C)C)C(=O)N3CCCCC3C(=O)N(C)CC(=O)N(C)C(C(C)C)C(=O)OC2C)c(N)c1=O` (stereo not given), the T/C is 139 % of control (dose: 0.78 mg/kg/injection, schedule: Q01DX009 (ip), vehicle: saline with Tween-80); 140 % of control (dose: 1.56 mg/kg/injection, schedule: Q01DX009 (ip), vehicle: saline with Tween-80); 149 % of control (dose: 3.13 mg/kg/injection, schedule: Q01DX009 (ip), vehicle: saline with Tween-80).
As to `COC(=O)/C=c1/s/c(=C\C(C)=N)[nH]c1=O`, under “dose: 240.0 mg/kg/injection, schedule: Q01DX005 (ip), vehicle: saline with Tween-80”, the survivor count is reported as 6 of 6.
For `N=C(N)SCCC(=O)Nc1ccccc1`, the survivor count under setting [2] is on record as 0 of 6.
Take `O=C1c2ccccc2-c2c1nc1ccccc1[n+]2[O-]`: the survivor count runs as follows: (dose: 50.0 mg/kg/injection, schedule: Q01DX005 (ip), vehicle: saline) 0 of 6; (dose: 100.0 mg/kg/injection, schedule: Q01DX005 (ip), vehicle: saline) 0 of 6; (dose: 200.0 mg/kg/injection, schedule: Q01DX005 (ip), vehicle: saline) 0 of 6.
For the molecule `CC1CCC(C)N(C)C1` (stereo not given), the survivor count by setting is: under setting [4], 2 of 6; (dose: 200.0 mg/kg/injection, schedule: Q01DX005 (ip), vehicle: saline with Tween-80) 0 of 6.
`CCC(=O)Sc1ccccc1C(=O)Nc1ccc(Cl)cc1`: the T/C by setting is: under setting [6], 126 and 139 % of control; under setting [5], 130 % of control. For the same molecule, the survivor count (dose: 400.0 mg/kg/injection, schedule: Q01DX009 (ip), vehicle: saline with Tween-80) is on record as 0 of 6.
Consider `CC(C)(C)N1CC1C#N` (stereo not given), for which the survivor count was 6 of 6 under setting [1]; 0 of 6 under setting [6]; 0 of 6 (dose: 100.0 mg/kg/injection, schedule: Q01DX009 (ip), vehicle: saline with Tween-80).
Take `O=C1c2ccc3ccccc3c2CCC1C1([n+]2ccccc2)CCc2c(ccc3ccccc23)C1=O` (stereo not given): the T/C (dose: 50.0 mg/kg/injection, schedule: Q01DX005 (ip), vehicle: Klucel (hydroxypropylcellulose) (HPC), evaluated on day 20) was 108 and 112 % of control; the T/C (dose: 50.0 mg/kg/injection, schedule: Q01DX005 (ip), vehicle: Klucel (hydroxypropylcellulose) (HPC), evaluated on day 30) was 121 and 124 % of control. Further, the survivor count (dose: 100.0 mg/kg/injection, schedule: Q01DX005 (ip), vehicle: Klucel (hydroxypropylcellulose) (HPC)) was 1 of 5 and the survivor count under setting [3] is given as 0 of 5.
For `O=S1(=O)C=C(Cl)C2C3CC(C(Cl)C3Cl)C21` (stereo not given), the survivor count (dose: 60.0 mg/kg/injection, schedule: Q04DX003 (ip), vehicle: saline) was 3 of 6.
In the case of `C=C1CC(C2OCOC3COCOC32)OC1=O` (stereo not given), the survivor count (dose: 240.0 mg/kg/injection, schedule: Q01DX005 (ip), vehicle: Klucel (hydroxypropylcellulose) (HPC)) is listed as 3 of 6.
With `Cc1cc(NC(=S)SCc2ccc(Cl)cc2)c([N+](=O)[O-])cc1C`, the survivor count (dose: 100.0 mg/kg/injection, schedule: Q01DX009 (ip), vehicle: suspension in saline) is reported as 4 of 6.
